The list shows a part of the results.
molecular target: T1, OsSMF1 (Oryza sativa, UniProt Q6ZLB0 1-436); test: protein-binding microarray (RPBM); PBS, 2% BSA, 51.3 ng/ul salmon testes DNA, 50 uM zinc acetate, 200 nM TF, 25 C, 1 h; high values mean tight binding; details: protein: recombinant; tags: N-terminal polyhistidine and DsRed monomer fusion (pET32a); chain copies: 2; label: CyDye5-dUTP incorporated in the synthesized complementary strand; 3' TTTTT single-stranded linker to array surface; dsDNA, one strand shown
T1 sequence: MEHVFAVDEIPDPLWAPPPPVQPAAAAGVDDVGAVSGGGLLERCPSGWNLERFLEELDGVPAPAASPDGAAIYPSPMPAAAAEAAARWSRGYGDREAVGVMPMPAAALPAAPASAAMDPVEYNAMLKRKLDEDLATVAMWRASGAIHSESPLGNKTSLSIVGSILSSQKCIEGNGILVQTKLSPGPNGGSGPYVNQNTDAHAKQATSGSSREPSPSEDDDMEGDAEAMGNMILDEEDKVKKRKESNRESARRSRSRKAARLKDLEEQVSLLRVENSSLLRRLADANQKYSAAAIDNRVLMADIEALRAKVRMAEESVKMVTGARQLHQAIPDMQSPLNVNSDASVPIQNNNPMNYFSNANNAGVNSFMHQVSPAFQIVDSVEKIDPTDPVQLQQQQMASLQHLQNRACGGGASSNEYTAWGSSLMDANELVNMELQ
In short: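 In PBS with 2% BSA, salmon testes DNA and 50 µM zinc acetate, 200 nM protein was incubated on a custom Agilent array at 25 °C for 1 h and then washed off. The array had been made double-stranded by primer extension with Cy5-dUTP and blocked with 2% BSA. The proteins were transcription factors fused N-terminally to polyhistidine and DsRed, expressed in E. coli BL21-CodonPlus and purified on Ni–NTA. The binding signal is per-feature fluorescence intensity (arbitrary units) from an Axon 4000B scanner.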

Sequence | binding signal
GGTATTTCCTTAACATACAAGTTTGGAATTTAACCCAAGTCGGAGTCACCTAGTGCAG | 24500 fluorescence intensity (a.u.)
ACCACTATCACACAGTGGGATCGCTTACGTCATATACTTTCGGAGTCACCTAGTGCAG | 10700 fluorescence intensity (a.u.)
ATATCATAAACACATGTGGATCCACATGTCATTGAGATAGCGGAGTCACCTAGTGCAG | 5360 fluorescence intensity (a.u.)
AACAAACCATTCCTAGTACACTCCTCGGCACACGTGCGCGCGGAGTCACCTAGTGCAG | 3470 fluorescence intensity (a.u.)
ACACTATACATAGTTTCCATAAACTCCACATCATCAAGAACGGAGTCACCTAGTGCAG | 5590 fluorescence intensity (a.u.)
CAGACGCGGCACGGTACGTGCACAGATAGTTCGCCGACGACGGAGTCACCTAGTGCAG | 3310 fluorescence intensity (a.u.)
GCTCACCTCCAAAGCCGCGTTCCTGTCACTCGGCCACACTCGGAGTCACCTAGTGCAG | 3720 fluorescence intensity (a.u.)
GTGTTGTTTTACCTGTATAATGTTGTGTATGCTCATATATCGGAGTCACCTAGTGCAG | 4000 fluorescence intensity (a.u.)
TGGTGGTGGAAATTTTGGAAATCGTGAGGGCTACACATACCGGAGTCACCTAGTGCAG | 3550 fluorescence intensity (a.u.)
TCCTCTTCCTACAGAGGACAGGGATGACAGCAACCTTACTCGGAGTCACCTAGTGCAG | 3150 fluorescence intensity (a.u.)
GTGAACACAATTCACCAGCATCATCAACATGACGTCCCTGCGGAGTCACCTAGTGCAG | 3980 fluorescence intensity (a.u.)
TATAGTGGCAACGCATGCTGACGTTACGGTGTACCGCCGTCGGAGTCACCTAGTGCAG | 5900 fluorescence intensity (a.u.)
GGAATGTGGAAGTGATAGAAACCGGATAAGCACATTTTCTCGGAGTCACCTAGTGCAG | 31600 fluorescence intensity (a.u.)
AGCGCCATGCTAAATGGCGCTGACATGTCCAAACTCAGCGCGGAGTCACCTAGTGCAG | 8240 fluorescence intensity (a.u.)
GGGTTCACGGCCGCCACGTTGCCCCGCGTCACCGTAGGGCCGGAGTCACCTAGTGCAG | 10600 fluorescence intensity (a.u.)
GTTCGAGGCAGCTAAGCCTACGTGGCAGATCCATAGGCCCCGGAGTCACCTAGTGCAG | 16100 fluorescence intensity (a.u.)
GAGAACACAATTTGTTGGAACAGTATCAGATTAGTTAGCACGGAGTCACCTAGTGCAG | 33400 fluorescence intensity (a.u.)
GCGCGTCGCGGCCATAGAAGGGATTCGGGGAGACGTGGCCCGGAGTCACCTAGTGCAG | 3480 fluorescence intensity (a.u.)
CTCAGTAGTAGCAGTGGTTGACGTGTAGTTACTATAGACGCGGAGTCACCTAGTGCAG | 6020 fluorescence intensity (a.u.)
CTCTTCCTGTGATGGCATGACGCCATGCGGTCGCAGCTAGCGGAGTCACCTAGTGCAG | 4540 fluorescence intensity (a.u.)
CGAGGCCTTGCCCGGGAACGGCGAGCATGGACGTCATCCGCGGAGTCACCTAGTGCAG | 3820 fluorescence intensity (a.u.)

Sequence | binding signal
GCCACCGCCACCTCATCTTCTCTCCCACCACCGCTCCACACGGAGTCACCTAGTGCAG | 5070 fluorescence intensity (a.u.)
AGCTTCCATCACACTAACACTTGAATTAACACGGAGTAGTCGGAGTCACCTAGTGCAG | 6300 fluorescence intensity (a.u.)
AGGAGTGCATACACCGCGTCCACGCCCACATTCACACGCCCGGAGTCACCTAGTGCAG | 28600 fluorescence intensity (a.u.)
TAGGCATGGGGCGGCGGCGCGACGCCGGCCGTCGTGAGCTCGGAGTCACCTAGTGCAG | 19100 fluorescence intensity (a.u.)
TTGGTTATCTTTACATTACCAAATAATGTCATAGCGTTAGCGGAGTCACCTAGTGCAG | 8160 fluorescence intensity (a.u.)
CTCGCCGGAGGTGGGCCCCACGTGACAGCCTCACACGCGGCGGAGTCACCTAGTGCAG | 3340 fluorescence intensity (a.u.)
GGTAACGAGGACGGCTGGGATTGCGCCACGTGGCAGCCTTCGGAGTCACCTAGTGCAG | 31200 fluorescence intensity (a.u.)
GGACGAAGAACGGGTCAACACCGCCACGTCAGCAAAACCGCGGAGTCACCTAGTGCAG | 27700 fluorescence intensity (a.u.)
CCGTCACATAGCCACGATTACATGAGATTCTGCACAGTTACGGAGTCACCTAGTGCAG | 3230 fluorescence intensity (a.u.)
GGCAATGTACAATAACACCTGGCAATAACTCTTGCCAACACGGAGTCACCTAGTGCAG | 3210 fluorescence intensity (a.u.)
GATGGCGGTTTTGCTGATGTGGCGTTGACGTGCCGACCCGCGGAGTCACCTAGTGCAG | 13200 fluorescence intensity (a.u.)
ATTACTATCTTTGAATGGGAACGAAGTTTCAATTATCACTCGGAGTCACCTAGTGCAG | 10100 fluorescence intensity (a.u.)
CATCCATCCGTCCGTGCCTCCGCGTTGCGCGTCCTTACCGCGGAGTCACCTAGTGCAG | 3140 fluorescence intensity (a.u.)
TTCAATAGGACACGGTGCTGATGACGTGGCGTGGCGGTGCCGGAGTCACCTAGTGCAG | 38100 fluorescence intensity (a.u.)
TTGCTATTCTCACCCATTACACTTGCTTATCCACAGTCATCGGAGTCACCTAGTGCAG | 4380 fluorescence intensity (a.u.)
TAGTACACCCGGCGACACATTTGATCCACACGTGTACGTACGGAGTCACCTAGTGCAG | 6760 fluorescence intensity (a.u.)
ACTAATGTACCATGACTGTTTCCTGCCAACACGAACACGTCGGAGTCACCTAGTGCAG | 5290 fluorescence intensity (a.u.)
GCTTTAAATCGTGTGCCGATTCGTGGAGACGGGTATGAGTCGGAGTCACCTAGTGCAG | 4380 fluorescence intensity (a.u.)
TGGCTCATGGAGAAAGAGGGGTGGTGGCGGTGCGTGGAGTCGGAGTCACCTAGTGCAG | 3250 fluorescence intensity (a.u.)
ACCCGCGGTGACGCGCTCCTTGACTCGGCGCCCCTGCTCGCGGAGTCACCTAGTGCAG | 5940 fluorescence intensity (a.u.)
AAACTTCTCTTCAGATAAAGATTTACTACCGTGTCAAATTCGGAGTCACCTAGTGCAG | 3800 fluorescence intensity (a.u.)

Copied from the list.
Entry for ATTACTATCTTTGAATGGGAACGAAGTTTCAATTATCACTCGGAGTCACCTAGTGCAG under binding signal: 10100 fluorescence intensity (a.u.)
Entry for GGACGAAGAACGGGTCAACACCGCCACGTCAGCAAAACCGCGGAGTCACCTAGTGCAG under binding signal: 27700 fluorescence intensity (a.u.)
Entry for ACCCGCGGTGACGCGCTCCTTGACTCGGCGCCCCTGCTCGCGGAGTCACCTAGTGCAG under binding signal: 5940 fluorescence intensity (a.u.)
Entry for CCGTCACATAGCCACGATTACATGAGATTCTGCACAGTTACGGAGTCACCTAGTGCAG under binding signal: 3230 fluorescence intensity (a.u.)

From PMC7819943, “Rice protein-binding microarrays: a tool to detect cis-acting elements near promoter regions in rice”
